Over roughly 33,000 sequences, “E-score (-0.5 to 0.5)” has its median near -0.015; the highest 2% begin near 0.3. The list shows a part of the results.
These sequences were tested against T1, Abf1 (UniProt P14164) (assay: PBM E-score (8-mer binding enrichment) (E-score (-0.5 to 0.5)); higher = stronger / more preferred TF binding). Conditions: protein concentration: 200 nM; construct: GST-full length.
T1 sequence: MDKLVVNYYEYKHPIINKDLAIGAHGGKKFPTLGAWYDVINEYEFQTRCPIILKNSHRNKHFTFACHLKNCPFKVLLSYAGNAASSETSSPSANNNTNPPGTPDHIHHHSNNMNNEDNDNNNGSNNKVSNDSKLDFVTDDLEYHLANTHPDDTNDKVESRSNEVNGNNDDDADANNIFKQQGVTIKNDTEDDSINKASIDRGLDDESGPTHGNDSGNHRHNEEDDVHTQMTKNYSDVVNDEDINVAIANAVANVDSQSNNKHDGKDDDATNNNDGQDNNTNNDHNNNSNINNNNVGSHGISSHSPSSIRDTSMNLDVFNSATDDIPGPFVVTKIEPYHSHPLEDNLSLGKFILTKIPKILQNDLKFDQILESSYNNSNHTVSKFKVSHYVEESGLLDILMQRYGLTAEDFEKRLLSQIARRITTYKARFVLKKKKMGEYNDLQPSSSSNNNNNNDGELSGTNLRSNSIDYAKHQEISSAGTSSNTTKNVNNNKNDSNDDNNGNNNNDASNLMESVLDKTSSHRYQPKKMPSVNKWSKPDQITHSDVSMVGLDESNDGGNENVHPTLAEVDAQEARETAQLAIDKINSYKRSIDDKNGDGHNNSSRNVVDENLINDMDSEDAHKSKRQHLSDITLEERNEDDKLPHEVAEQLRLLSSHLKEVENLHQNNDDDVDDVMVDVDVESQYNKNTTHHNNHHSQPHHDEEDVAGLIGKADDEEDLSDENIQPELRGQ
In short: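 Yeast transcription factors carrying a GST tag, as full-length proteins or DNA-binding domains, were produced by PURExpress in vitro transcription/translation. About 100-200 nM protein was applied to universal all-10-mer Agilent arrays, double-stranded by primer extension on fresh or once-stripped slides. Bound protein was detected with fluorescent anti-GST, and scans were normalised with masliner. The Universal PBM Analysis Suite gave each ungapped eight-base word, pooled with its reverse complement, an E-score, a modified Wilcoxon-Mann-Whitney statistic.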

| Sequence | PBM E-score |
| --- | --- |
| CTACATTA | 0.00301 |
| CACAAACA | 0.0103 |
| AGAACACC | -0.225 |
| GAGTCCCA | -0.122 |
| ATTACGAC | 0.237 |
| AGTTAGGG | -0.107 |
| CCCGTTCC | 0.0441 |
| AAACTTAA | 0.0359 |
| AACTGAGC | -0.0642 |
| CCGATAGG | -0.152 |
| CGTCATGC | 0.144 |
| ATCAATGG | -0.0171 |
| AGACGTGA | 0.227 |
| AGACATGG | -0.0803 |
| GTTTGTGA | -0.0115 |
| ACGAACGA | 0.314 |
| AGAATATC | 0.218 |
| AGGAGAAT | -0.28 |
| AGTTGATC | 0.091 |
| ACTGCCAA | 0.123 |
| TTCGCAAA | 0.00168 |
| AACCCCTG | -0.289 |
| GCAACGAA | 0.227 |
| ATCTAAAC | 0.00327 |
| AAGGTCTC | -0.137 |

| Sequence | PBM E-score |
| --- | --- |
| AATTGATG | 0.103 |
| ATGACGTC | 0.231 |
| AGTTCATG | 0.0344 |
| CAATCAGC | 0.0586 |
| AACAGGTT | -0.206 |
| CATGCGCC | -0.0508 |
| CCCAGCGC | -0.176 |
| AATTGCAA | -0.0314 |
| CACAACGC | -0.174 |
| CCTCCCAG | -0.196 |
| ATTATTTC | 0.211 |
| AGGCCGTG | 0.092 |
| AAGTAATT | 0.129 |
| GGTAGCAC | -0.167 |
| GTTTCGGA | 0.0277 |
| AGCATACA | 0.0592 |
| GAATGCGA | 0.0209 |
| CTATCCAG | -0.134 |
| AGTAGCTA | -0.112 |
| GAGAGAGC | -0.116 |
| CGGCCGAA | -0.0221 |
| CTCAAGCC | -0.315 |
| CGGTGGAG | -0.135 |
| GGGATCAA | 0.0464 |
| GACGGACA | 0.0588 |

In another format: results already given.
Sequence	PBM E-score
GAGAGAGC	-0.116
CGGCCGAA	-0.0221
CTCAAGCC	-0.315
CGGTGGAG	-0.135
GGGATCAA	0.0464

Continuation.

| Sequence | PBM E-score |
| --- | --- |
| AGCCTTAT | 0.0606 |
| TGAAACCA | -0.0487 |
| ATTGTCTC | 0.13 |
| CGCCATGA | 0.101 |
| TACTGTAA | -0.146 |
| ACGACTGA | 0.144 |
| CAACTCGA | -0.127 |
| AGTAGGCG | -0.0728 |
| CTATAGTA | -0.00399 |
| GGTGGGAA | -0.0486 |
| CCTCCGCC | -0.059 |
| CACGCGCA | -0.025 |
| AATAGCTG | -0.064 |
| ATTTCAAA | 0.109 |
| AATTTCCG | 0.169 |
| ATATCAGG | 0.0336 |
| ACCCTCAA | -0.107 |
| GGGACCCA | -0.327 |
| CGAGATGC | 0.0945 |
| ATCCTTGA | -0.145 |
| CTGTAACC | -0.0333 |
| CAGGGATG | 0.0507 |
| CGATTTAA | 0.12 |
| CATTAAAC | 0.0861 |
| ATGTCCGA | 0.00408 |

| Sequence | PBM E-score |
| --- | --- |
| AGTGGACC | -0.0472 |
| AATGGGGC | -0.224 |
| AAAATATT | 0.0903 |
| GCTCTCCC | -0.275 |
| GGGAGGGA | -0.238 |
| AAAGCATG | -0.188 |
| CCGGGAAA | -0.0258 |
| ATTATGCA | -0.114 |
| GAGTAACA | 0.0227 |
| CATAAATC | 0.00674 |
| GATTTGGA | 0.0327 |
| ATCTTCTA | 0.119 |
| AAGGGTCA | -0.128 |
| GCATTCCC | -0.0595 |
| TACCTCAA | 0.0571 |
| ACGGAAGC | 0.167 |
| CACCCTGC | 0.0175 |
| AAGGTTTA | -0.0569 |
| TTGTGAAA | 0.0588 |
| ACATGATC | 0.292 |
| CGCCAGCG | -0.0651 |
| CAAGAGGA | 0.0603 |
| AAAGCAGA | -0.0436 |
| GACCAACC | 0.045 |
| ATATTCCC | -0.0189 |

| Sequence | PBM E-score |
| --- | --- |
| GAATTGCC | -0.00785 |
| ACATACCC | -0.0101 |
| GCAAAGGA | 0.032 |
| ATCAACTA | 0.0982 |
| ATACGACC | 0.239 |
| CGCGCTCA | 0.00581 |
| AAGCGAAC | -0.113 |
| AAATCATA | 0.194 |
| CGCCAGGA | -0.139 |
| ACGAGCAG | -0.00465 |
| AGCGACGG | 0.208 |
| CTGGGCTA | -0.216 |
| CTATTTCA | 0.162 |
| CACCGGAC | -0.163 |
| ACATTGGC | -0.102 |
| ACCGTCGT | 0.289 |
| CATCTTCC | 0.126 |
| GTCGGTTA | -0.00726 |
| GGGCGAAC | -0.164 |
| CGGGCGAA | -0.0488 |
| CAGGATGG | -0.126 |
| TAGCGATA | 0.347 |
| AGGCGAAA | 0.0109 |
| CGGAGAGA | -0.0233 |
| AACCATGA | 0.104 |

Exported with tabs: entries from further up.
Sequence	PBM E-score
GAATTGCC	-0.00785
AAGCGAAC	-0.113
ACGAGCAG	-0.00465
ACATTGGC	-0.102
ACCGTCGT	0.289

Carrying on.

| Sequence | PBM E-score |
| --- | --- |
| CAGGTTAC | 0.0521 |
| ATCCAACG | 0.0491 |
| AATGCATT | 0.131 |
| ACACACTA | -0.0945 |
| AAGGAAAC | -0.0411 |
| ACCCAGTG | -0.077 |
| GACGGGAC | -0.171 |
| GAATCCAA | 0.0635 |
| GCGTGACC | 0.108 |
| GAATATTC | 0.0666 |
| CACTAACG | 0.0881 |
| CCTTCCTC | -0.283 |
| GACCTGCC | -0.13 |
| CGGTAAAA | -0.0512 |
| CAACCGGA | 0.00066 |
| CAATCTAG | -0.095 |
| AAGCCCAA | -0.219 |
| CACAGAGA | -0.0444 |
| AACGTGGC | -0.133 |
| AGTATTAC | 0.2 |
| ACTCGGGA | -0.0472 |
| CGATCCGC | -0.155 |
| AGAAATGG | -0.0914 |
| ATGATGTC | 0.274 |
| ACTGAAAT | -0.0641 |

| Sequence | PBM E-score |
| --- | --- |
| CCCTCAGG | -0.165 |
| AGTTACTG | -0.176 |
| CAGGAGTC | -0.0846 |
| CACAAGGC | -0.125 |
| CCTGGCTA | -0.122 |
| TGAGCTCA | -0.235 |
| AGACTGGA | -0.122 |
| AATGTCCG | 0.141 |
| CATCAACA | 0.0969 |
| CACATGTG | -0.128 |
| ATGCGTGC | 0.0427 |
| CTGTCACA | 0.138 |
| AAAAATTA | 0.159 |
| GAAAGCCA | -0.149 |
| ATGAAGAC | 0.119 |
| AACTTTAA | 0.166 |
| TAGCTGGA | -0.206 |
| AAGGATCA | -0.0554 |
| GAATGTCC | -0.0713 |
| ATAAGGCA | 0.14 |
| GAGCGTGA | 0.138 |
| CTCGTGGA | 0.188 |

— the supplement of paper PMC3334620
